Data as given in patent EP1289507B1, “USE OF AN ALDOSTERONE ANTAGONIST FOR THE TREATMENT OR PROPHYLAXIS OF ALDOSTERONE-MEDIATED PATHOGENIC EFFECTS” (priority 2000, dated 2001).
At least one read-out could not be matched to a standard name with certainty.

Tests used:
[1] = Pharmacokinetics and absorption after IV and oral [14C]eplerenone in the rat; format: in vivo; conditions: for elimination half-life of total radioactivity: IV 15 mg/kg
Description: Plasma, urine and fecal samples were analyzed for total radioactivity.

[2] = oral 20 mg/kg

For `COC(=O)[C@@H]1CC2=CC(=O)CC[C@]2(C)[C@@]23O[C@@H]2C[C@@]2(C)[C@@H](CC[C@@]24CCC(=O)O4)[C@H]13` [Eplerenone, Pregn-4-ene-7,21-dicarboxylic acid, 9,11-epoxy-17-hydroxy-3-oxo-, γ-lactone, methyl ester, (7α, 11α, 17β)-], the “elimination half-life of total radioactivity” value ([1]; female rat) was 1.6 h, the “elimination half-life of total radioactivity” value ([1]; male rat) was 1.9 h and the “time to mean peak plasma concentration (Cmax) of total radioactivity” value ([1]; oral 15 mg/kg aqueous solution, female) was 0.8 h. For the same compound, the Cmax in brain [2] was 0.516 µg equivalents/g, the “Cmax in eye (minus lens)” value [2] was 0.045 µg equivalents/g and the “Cmax in spinal cord” value [2] was 0.630 µg equivalents/g. The “mean Cmax in blood” value [2] was 4.90 µg equivalents/g, the “mean Cmax in kidneys” value [2] was 10.1 µ equivalents/g and the “mean Cmax in liver” value [2] was 41.1 µ equivalents/g. For the same compound, the “mean Cmax in pancreas” value [2] was 12.1 µ equivalents/g and the “mean Cmax in plasma” value [2] was 8.64 µg equivalents/g.
